Source: publication PMC10163288
The other results are listed elsewhere or left out.

B1: il10ra_site1_normal_mot_HHH_b2_00273_000000062_0001_23_39_H_._HHH_b1_02914_0001_0001000048_0000001_0 (protein)
chain: SSSSDREERIEHLLERAEELAEEGNPEEALRLLMEALRLAFELGDEELLQEIWEVARKVASSSSS
B2: il10ra_site1_normal_mot_HHH_b2_00277_af2_000000172_0001_1_17_H_._HHH_b2_06627_0001_0000100011_0000001_0_af2pred_0001 (protein)
chain: SSSSDEEEIEEEVRELLEEAKHIEDPRELAYVLTRAYALANRGNDPELRKLVERVAKELISSSSS
B3: il10ra_site1_sap_18_mot_HHH_b1_01011_000000096_0001_1_19_H_._HHH_b2_02769_0001_0000100001_0000001_0_0001 (protein)
chain: SSSSDIAEFLAEQALKAAKLLIERGDEEEAREALKVAQRAAEEANNPELVEEIRELLEELNSSSS
B4: il10ra_site1_sap_25_mot_HHH_b1_01879_000000050_0001_1_18_H_._HHH_b1_01497_af2_0001_0000200008_0000001_1_0001_af2pred_0001 (protein)
chain: SSSSSSEAEEEIRELLEEAEQIEDKLERSRVLQQALLLARRNNDPELEELVHKVARELLSSSSSS
B5: il10ra_site1_normal_mot_HHH_b1_06994_000000193_0001_40_55_H_._HHH_b1_00400_0001_0000200006_0000001_0 (protein)
chain: SSSDKQRRELVRTALVLVEQAVKAGDEETAEFLVISMEIAAEELNDPRLRELVEEAEELINSSSS
B6: il10ra_site1_normal_mot_HHH_b1_00999_000000080_0001_41_55_H_._HHH_b1_02815_0001_0000700030_0000002_0 (protein)
chain: SSSSDEEEERSKELLEELEELLRRGDQHRFLRLLQHIVRFAFEVSDEELLHEVWRLAREFGSSSS
B7: il10ra_site1_normal_mot_HHH_b2_00984_000000042_0001_1_20_H_._HHH_b1_08340_af2_0001_0000300017_0000001_0 (protein)
chain: SSSSDELEERIRELLEELEELVREGDEEAVSELALEIIRLLFELGNPELLHELWRLILSARSSSS
B8: il10ra_site1_sap_24_mot_HHH_b1_01307_000000115_0001_1_18_H_._HHH_b1_01868_af2_0001_0000100001_0000001_0_0001 (protein)
chain: SSSSSSSDFLEAIKEALHKLFRLGDEEAMHELWRLAKEIVKEGDPELREELKELVEELSSSSSSS
B9: il10ra_site1_sap_28_mot_HHH_b1_03314_af2_000000278_0001_42_55_H_._fa9d0efb6cdfa3d48f532c1d34b61b18_0001_af2_0001_0000800030_0000001_0_0001 (protein)
chain: SSSNVEEMVRTALMSVEIAYENNNPEYIEIALRFVRHILENHKDPEVEELLEEIEELLRRLSSSS
B10: il10ra_site1_normal_mot_HHH_b1_05326_000000242_0001_1_20_H_._HHH_b2_05084_af2_0001_0000700029_0000001_0 (protein)
chain: SSSSDEIIERALKLSVEAFRLALRGNPEEAEELLQEALELAREAGNPQLAEQIEILLETLGSSSS
B11: il10ra_site1_normal_mot_HHH_b2_04057_000000065_0001_1_20_H_._HHH_b1_01132_0001_0000100014_0000001_0 (protein)
chain: SSSSDERLEELLKELEELLKEGDSDEFYKVLRELIELARELNDQEVQRELLEILRRFLEQSSSSS
B12: il10ra_site1_sap_16_mot_8756ee2cf497b5429c717dfc0c0bcfd6_0001_000000186_0001_1_13_H_._HHH_b2_03216_af2_0001_0000500013_0000002_0_0001_af2pred_0001 (protein)
chain: SSSSSTEKFRIAVRFDARLLEVAKTEEQRRQVERAMELMKELVSEELQEELEEVLRELRSSSSSS
B13: il10ra_site1_normal_mot_HHH_b1_06789_af2_000000041_0001_1_20_H_._HHH_b2_03542_af2_0001_0000300009_0000001_0 (protein)
chain: SSSSDAVEFLIKQALKAIKIAIERGDEEVFEHALEIARRAIEQANDPEAEEILEELEREFKSSSS
B14: il10ra_site1_normal_mot_HHH_b2_04186_af2_000000278_0001_1_19_H_._HHH_b1_04260_0001_0000300022_0000001_0 (protein)
chain: SSSSDVRQEVLELVLEAFRLLLRGNEERARELLERALELAEELGDERLFRIIEDQLEILGSSSSS
B15: il10ra_site1_normal_mot_HHH_b1_06348_000000162_0001_1_15_H_._HHH_b1_03022_0001_0000100005_0000001_0 (protein)
chain: SSSSSEEAEELYRILRRVAELEFEGNPEEARELLEEAEELAREAGNFAFLANIEFMLRRLNSSSS
B16: il10ra_site1_sap_22_mot_HHH_b2_08231_af2_000000290_0001_1_18_H_._HHH_b1_03552_af2_0001_0000200004_0000002_0_0001_af2pred_0001 (protein)
chain: SSSSDEDEERLELTLRLVQFLLEQGSEEAARLLLEILRELAERANDEEIKEEIERLEELVNSSSS
B17: il10ra_site1_normal_mot_8756ee2cf497b5429c717dfc0c0bcfd6_0001_000000186_0001_1_13_H_._HHH_b2_01502_0001_0000100015_0000001_0_af2pred_0001 (protein)
chain: SSSSSSKRELLRKIAEALAEGDEEKAEELLEEAEELAKELGDLNFKALVEFAREILERLRSSSSS
B18: il10ra_site1_sap_27_mot_HHH_b1_01886_000000262_0001_1_18_H_._HHH_b2_00363_0001_0000300047_0000001_0_0001 (protein)
chain: SSSSDSEVAELLFEAVRLLFEGNPEEARKVVEEAEELAEELGDDELQRYVEIVKHFVEAQSSSSS
B19: il10ra_site1_normal_mot_HHH_b1_06914_000000280_0001_1_18_H_._HHH_b1_01011_0001_0000100001_0000002_0 (protein)
chain: SSSSDEEEEIFEEAEERAEELARRGDPERAAHILYRASRLLLELGDYELAHRLIELLVRLSSSSS
B20: il10ra_site1_normal_mot_8756ee2cf497b5429c717dfc0c0bcfd6_0001_000000186_0001_1_13_H_._HHH_b2_00624_0001_0000700066_0000001_0_af2pred_0001 (protein)
chain: SSSSSEEQEELFRLLRRAAELHHEGNPEEARELLEEAEELAREAGDLVAEAVIRYMLKLAGSSSS
B21: il10ra_site1_normal_mot_HHH_b2_02337_000000026_0001_38_52_H_._HHH_b1_06864_0001_0000200017_0000001_0 (protein)
chain: SSSSDLEEEIEELIRELERLLEEGDQEKFAEVAQRVVQLIYEAGDPELLKLVWEIVQRFASSSSS
B22: il10ra_site1_sap_15_mot_HHH_b1_04704_af2_000000076_0001_43_57_H_._HHH_b2_05371_0001_0000400025_0000001_0_0001_af2pred_0001 (protein)
chain: SSSSNKEEDVRSALKAAELAAEAGDEETVKRALKIAELSAEQSNDPELEREVRELEEKFESSSSS
B23: il10ra_site1_sap_18_mot_39ab2cb694c8b9c1dc7e65c0d672c93e_0001_000000036_0001_53_65_H_._HHH_b2_07044_af2_0001_0000600014_0000001_0_0001 (protein)
chain: SSSSDEYVELSIKFARWLIEAGDLEAARRILEAAAEIAERDNNPELLEEIRELIEQVEELGSSSS
B24: il10ra_site1_normal_mot_b26a303360aa2756ef5b79665ce52f45_0001_000000179_0001_1_11_H_._HHH_b2_00938_0001_0000300021_0000002_0_af2pred_0001 (protein)
chain: SSSSSESARIAREVAEEVAKLREEGDEEKAEELLEEALKRLEELNNPVAATNIRHALKVLRSSSS
B25: il10ra_site1_normal_mot_1cde5897893f3d1588f92be3b001cdf2_0001_af2_000000130_0001_54_65_H_._HHH_b2_06867_0001_0000600034_0000001_0_af2pred_0001 (protein)
chain: SSSSSSDEYREEVEELLEEARENPETASQLILEAARLAAEGNDPEALRLVLEFLKERFSSSSSSS
B26: il10ra_site1_sap_19_mot_HHH_b2_02053_af2_000000006_0001_3_19_H_._HHH_b1_08256_0001_0000100005_0000001_0_0001 (protein)
chain: SSSSSEIEEEVRELLKQAEELAEEGDPEEAAKVLQEATHLAIQAQDPELLRLVWEVVKKISSSSS
B27: il10ra_site1_sap_11_mot_HHH_b1_05789_000000283_0001_1_15_H_._HHH_b1_00584_0001_0000300024_0000001_1_0001_af2pred_dldesign_0_af2pred (protein)
chain: SSSSSAYKLLTEQALRAARLAAEAGDADAVAKALAIARQLAENAKDPELLARVEAERARLSSSSS
B28: il10ra_site1_sap_13_mot_HHH_b2_00277_af2_000000172_0001_1_17_H_._c0e252e6bbbdd727933fd7c9c1d8be2d_0001_0001_0000200010_0000001_0_0001 (protein)
chain: SSSSEEREVVELAFRAVRLLAHGNPEEARKVLEEAKELAEELNDEELQRYVEIALHFVEAHSSSS
B29: il10ra_site1_normal_mot_ems_3hM_235_000000244_0001_46_64_H_._HHH_b1_03428_af2_0001_0000400027_0000001_0 (protein)
chain: SSSSSDLERIWELSRRALELAANGNPEEAEELVREAHEIAEEAGDPALEFIVRALERRVRSSSSS
B30: il10ra_site1_normal_mot_HHH_b2_00475_000000107_0001_44_57_H_._HHH_b1_07089_af2_0001_0000100001_0000001_0 (protein)
chain: SSSSDEQEVAELIFRAVRLIAEGNLEEAEELLKEAEKIARENNDEELEEYVKIAEHFVRAHSSSS
B31: il10ra_site1_normal_mot_HHH_b1_01082_af2_000000031_0001_3_19_H_._HHH_b2_08025_0001_0000100013_0000001_0 (protein)
chain: SSSSSDLEEEVEELLEEARHIEDPEERYKVLKEAIEVASERGDPELFRLIMRFLEQVFRGSSSSS
B32: il10ra_site1_sap_26_mot_HHH_b2_06321_af2_000000133_0001_42_55_H_._HHH_b1_00003_af2_0001_0000400008_0000001_0_0001_af2pred_0001 (protein)
chain: SSSSSSEEEELEEFVEELVEKFKLSEEKKKALEYLARLLLELGASPEEVQRSLENAARLLSSSSS
B33: il10ra_site1_sap_8_mot_HHH_b1_06978_af2_000000172_0001_1_16_H_._HHH_b1_05317_af2_0001_0000100002_0000001_0_0001 (protein)
chain: SSSSSQEVYELLKEAIELLSEGNPEEAEKVLEEAEELAREENDMVLLVVIEFLERLIKRQSSSSS
B34: il10ra_site1_normal_mot_HHH_b2_00612_000000251_0001_1_14_H_._HHH_b2_04981_0001_0000400040_0000001_0_af2pred_0001 (protein)
chain: SSSSDEEFEEVRKLLEEASELAQRGDREEAERLVEEAIELAREGGNEQLTRSAEYLLELIRSSSS
B35: il10ra_site1_normal_mot_HHH_b2_04013_af2_000000040_0001_22_39_H_._HHH_b2_02292_af2_0001_0000200014_0000001_0 (protein)
chain: SSSSDEEEAEELVKEAEEELEKLLKRNAEEAFELLRRVIERLIELGNPEAARRLARFFVEVSSSS
B36: il10ra_site1_normal_mot_HHH_b2_04251_af2_000000037_0001_42_56_H_._HHH_b1_07770_0001_0000300015_0000002_0 (protein)
chain: SSSSSDEEVRELIEEAKELLERGDPEEALKVLQEASRLAIELADPELTRLVIEVARLLDSSSSSS
B37: il10ra_site1_sap_20_mot_HHH_b2_08144_af2_000000046_0001_38_52_H_._HHH_b2_04244_0001_0000400048_0000001_0_0001 (protein)
chain: SSSSSDLEEIWRLIREALELRANGNPEEAEKLVEEAKEIAEEAGDPALRFIVEALERAVRSSSSS

molecular target: il10ra, Q13651; experiment: yeast display titration

Apparent Kd, inactive:
B1 no binding seen
B2 no binding seen
B3 no binding seen
B4 no binding seen
B5 no binding seen
B6 no binding seen
B7 no binding seen
B8 no binding seen
B9 no binding seen
B10 no binding seen
B11 no binding seen
B12 no binding seen
B13 no binding seen
B14 no binding seen
B15 no binding seen
B16 no binding seen
B17 no binding seen
B18 no binding seen
B19 > 2.95 µM
B20 no binding seen
B21 no binding seen
B22 no binding seen
B23 no binding seen
B24 no binding seen
B25 no binding seen
B26 no binding seen
B27 no binding seen
B28 no binding seen
B29 no binding seen
B30 no binding seen
B31 no binding seen
B32 no binding seen
B33 > 3.36 µM
B34 no binding seen
B35 no binding seen
B36 no binding seen
B37 no binding seen
